Assay results from PubChem BioAssay AID2685 (National Center for Advancing Translational Sciences (NCATS), 2010).
The other results are listed elsewhere or left out. Shown are side measurements of this screen, not its main read-out; they come without a call. Most of these compounds were active or inconclusive in the main read-out, so they are no random draw. The note in brackets gives the kind of curve behind each potency; many fits are weak.

Assay: qHTS Assay for Lipid Storage Modulators in Drosophila S3 Cells;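 for cell number change: cells counted by Cell Tracker Red CMTPX staining in the red channel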
Conditions: BODIPY lipid droplet fluorescence, 18-24 h; for cell number change: measured here: cell count max response, cells fed with added oleic acid
Method in brief: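 Drosophila S3 cells loaded with oleic acid (400 uM, as added) and compounds at several concentrations; lipid droplets imaged by 488-nm laser-scanning cytometry, 500–530 nm intensity and object ratio to cell channel. Percent activity normalized to 20 uM Triacsin C.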

[1] = measured here: cell number channel AC50, cells fed with added oleic acid
[2] = measured here: lipid fluorescence (Fed channel) AC50, cells fed with added oleic acid

CC(C)(C=O)C1=CC(=O)c2ccccc2C1=O
cell number change: -49.1%
AC50 [1]: 2910 nM [falling, full curve]
AC50 [2]: 4610 nM [falling, full curve]

Cc1cc(C)nc(NNS(=O)(=O)c2c(C)cc(C(C)(C)C)cc2C)n1
cell number change: 89.7%
AC50 [1]: 25900 nM [rising, single point]
AC50 [2]: 6.51 nM [falling, full curve, poor fit]

Cc1cccc(NC(=O)C2c3ccccc3Oc3ccccc32)n1
cell number change: 12.1%
AC50 [2]: 820 nM [rising, full curve, poor fit]

CCOC(=O)C(C)n1cnc2c(nnn2-c2ccc(F)cc2)c1=O (configuration not stated)
cell number change: -1.73%

CC(OC(=O)CCCCCN=C1NS(=O)(=O)c2ccccc21)C(=O)Nc1cc(Cl)cc(Cl)c1 (configuration not stated)
cell number change: 7.57%
AC50 [2]: 32600 nM [falling, single point]

COc1ccc(CCNc2nc(N3CCCCC3)nc(N3CCCCC3)n2)cc1OC
cell number change: -34.8%
AC50 [1]: 29100 nM [falling, single point]

CCCCN1C(=O)C(=O)N(CC(=O)Nc2cccc(C(C)=O)c2)C1=O
cell number change: -10.7%
AC50 [2]: 130 nM [falling, partial curve, poor fit]

Cc1sc2ncnc(NCC(c3ccco3)N(C)C)c2c1C (configuration not stated)
AC50 [1]: 3660 nM [falling, partial curve]

C(=N\n1cnnc1)/c1ccc(-c2ccccc2)cc1
cell number change: 15.2%
AC50 [2]: 7310 nM [rising, partial curve]

CC1(C)O[C@@H]2[C@H](O1)[C@@H](CO)O[C@H]2n1cnc2c(N)ncnc21
cell number change: 6.26%
AC50 [2]: 146 nM [rising, full curve, poor fit]

COC(=O)Cc1ccc(O)c(N)c1
cell number change: -9.54%
AC50 [2]: 16400 nM [falling, partial curve, poor fit]

COc1cc(NC(=O)c2cccc3c2C(=O)N(C2CCCCC2)C3)cc(OC)c1OC
cell number change: -4.42%
AC50 [2]: 580 nM [rising, single point]

COC(=O)c1onc(C(=O)c2ccccc2)c1C(=O)OC
cell number change: 2.01%
AC50 [2]: 92 nM [falling, full curve]

Cc1ccc(C(C)C)c(OCC(=O)N2CCN(c3ncccn3)CC2)c1
cell number change: -10%
AC50 [2]: 2910 nM [rising, single point]

O=C(/C=C/c1ccccc1)NNC1=NS(=O)(=O)c2ccccc21
cell number change: 14.2%
AC50 [2]: 18400 nM [rising, partial curve]

Cc1ccc2oc3nc(C)c(C(=O)O)cc3c(=O)c2c1
cell number change: -9.68%
AC50 [2]: 1640 nM [falling, partial curve]

Nn1c(SCC(=O)NC2CCCc3ccccc32)nnc1-c1cccs1 (configuration not stated)
cell number change: 0.129%
AC50 [2]: 731 nM [rising, single point]

CC(=O)c1ccc(N2CCN(C(=O)Cc3cccs3)CC2)cc1
cell number change: -15.3%

Cc1ccccc1NC(=O)Cc1nc(COC(=O)CCNS(=O)(=O)c2ccccc2)cs1
AC50 [1]: 920 nM [rising, partial curve]

CCOc1ccc(OCC(=O)OCc2cc(=O)n3cc(Br)ccc3n2)cc1
cell number change: 10.2%
AC50 [2]: 326 nM [falling, full curve, poor fit]

CC1CCN(c2nc(N3CCCCC3)nc(N3CCCCC3)n2)CC1
cell number change: -62.5%
AC50 [1]: 116 nM [falling, full curve, poor fit]

CCOc1ccc(-c2nc(N)ncc2-c2ccc(OC)cc2)c(O)c1
cell number change: -1.85%
AC50 [2]: 2910 nM [rising, single point]

CC1CN(c2ccc(S(=O)(=O)N3CCCC3)cn2)CC(C)O1 (configuration not stated)
cell number change: -0.819%
AC50 [1]: 1300 nM [rising, partial curve]
AC50 [2]: 3660 nM [rising, partial curve, poor fit]

Cc1ccc2c(c1)C1(OCCO1)C(=O)N2
cell number change: 45.8%
AC50 [1]: 29100 nM [rising, single point]

COC(=O)COc1ccc(S(=O)(=O)NCc2ccco2)cc1
cell number change: -16.5%
AC50 [2]: 5800 nM [falling, full curve]

O=C(O)c1ccc(CNC(=S)Nc2ccccc2)cc1
cell number change: -2.55%
AC50 [2]: 146 nM [falling, single point]

O=C(NCc1ccccc1)N1CCC(n2cnc3cc(F)ccc32)CC1
cell number change: -2.87%
AC50 [2]: 1840 nM [rising, partial curve]

CC1CCCC(C)N1C(=O)COC(=O)C12CC3CC(CC(Cl)(C3)C1)C2 (configuration not stated)
cell number change: -21.4%
AC50 [2]: 65.1 nM [rising, full curve, poor fit]

O=c1cc(N2CCN(c3ccccc3)CC2)[nH]c(=O)n1Cc1ccc(F)cc1
cell number change: 45.5%
AC50 [1]: 5170 nM [rising, partial curve]
AC50 [2]: 3260 nM [rising, single point]

Cc1cc(C)n(-c2ccc(C(=O)OCC(=O)Nc3ccc(S(=O)(=O)N4CCOCC4)cc3)cc2)n1
cell number change: 4.46%
AC50 [2]: 146 nM [falling, full curve, poor fit]

COc1ccc(S(=O)(=O)N2CCCN(CC(=O)Nc3ccc(NC(C)=O)cc3)CC2)cc1
cell number change: -0.417%
AC50 [2]: 164 nM [rising, full curve, poor fit]

CCN=C1SC(CC(=O)Nc2sc(C)c(C)c2C(=O)OC)C(=O)N1CC (configuration not stated)
cell number change: 1.08%
AC50 [2]: 206 nM [rising, full curve]

CN(C)/C=C/C(=O)c1ccc([N+](=O)[O-])c(CS(=O)(=O)c2ccc(Cl)cc2)c1
cell number change: 17.9%
AC50 [2]: 16400 nM [rising, single point]

CCN(CC)S(=O)(=O)c1ccc(N2CCCC2)c(NS(=O)(=O)c2ccc(F)cc2)c1
cell number change: -30%
AC50 [1]: 4610 nM [falling, partial curve]
AC50 [2]: 1300 nM [falling, full curve]

O=C(CSc1n[nH]c(=O)n1C1CC1)N1N=C(c2ccc(Cl)cc2)CC1c1ccco1 (configuration not stated)
cell number change: 0.169%

CCn1nc(C)c(Br)c1Nc1ccc(Br)cc1
cell number change: 0.291%
AC50 [1]: 1640 nM [rising, partial curve]

COc1cc(C(=O)NCC2CCCCC2)ccc1OCc1c(C)noc1C
cell number change: -11.4%
AC50 [2]: 517 nM [rising, full curve]

CC(C)(C)NC(=S)Nc1cccc(C(F)(F)F)c1
cell number change: -107%
AC50 [1]: 29100 nM [falling, single point]
AC50 [2]: 29100 nM [falling, single point]

COc1ccc(C(NC(=O)C(C)C)c2c(O)ccc3ccccc23)cc1OC (configuration not stated)
cell number change: 6.83%
AC50 [2]: 1160 nM [rising, single point]

CC(C)c1nc(SCC(=O)NCC2CCCO2)c2c(=O)n(C)c(=O)n(C)c2n1 (configuration not stated)
cell number change: 20.9%
AC50 [2]: 29100 nM [rising, single point]

COc1ccccc1Oc1ccc2c(c1)C(=O)N(c1ccc(Br)c3cccnc13)C2=O
cell number change: -8.66%
AC50 [2]: 5170 nM [falling, single point]

CS(=O)(=O)c1ccc(Cl)c(NC(=O)C2CCN(S(=O)(=O)c3cccs3)CC2)c1
cell number change: -3.68%
AC50 [2]: 18400 nM [falling, single point]

Cc1ccc(CNC(=S)NC2CCC(C(C)(C)C)CC2)cc1 (configuration not stated)
cell number change: 23.1%

CC(C)(C)OC(=O)CNC(=O)c1[nH]cnc1C(=O)Nc1ccc(CNC(=O)OC(C)(C)C)cc1
cell number change: -6.9%
AC50 [2]: 32600 nM [falling, single point]

O=C(Nc1ccc(N2CCOCC2)cc1)c1cccc2ccccc12
AC50 [2]: 29100 nM [rising, partial curve, poor fit]

CC(NC(=O)c1cc(S(=O)(=O)N2CCOCC2)cn1C)c1ccccc1 (configuration not stated)
cell number change: 19.9%
AC50 [2]: 16400 nM [rising, partial curve]

O=C(Nc1ccc(N2CCOCC2)c([N+](=O)[O-])c1)c1ccco1
cell number change: -20.6%
AC50 [2]: 146 nM [falling, full curve, poor fit]

O=C(NCCc1ccccc1)c1ccc(CS(=O)(=O)Cc2ccccc2F)o1
cell number change: -0.133%
AC50 [2]: 326 nM [rising, full curve]

COC(=O)c1cccc(N(CC(=O)NCC2CCCO2)C(=O)CCC(=O)Nc2cc(C)on2)c1 (configuration not stated)
cell number change: 12.5%
AC50 [2]: 920 nM [falling, full curve, poor fit]

COc1ccc(OC)c(C(=O)COC(=O)CNC(=O)c2ccccc2)c1
cell number change: -18.8%
AC50 [2]: 29100 nM [falling, single point]

CCN(C(=O)c1ccco1)c1nc(-c2ccc(OC)cc2)cs1
cell number change: -6.56%
AC50 [2]: 3260 nM [falling, single point]

O=C(NC1CCCCC1)C(c1ccncc1)N(C(=O)c1ccco1)c1ccc(F)cc1 (configuration not stated)
cell number change: -8.97%

Cc1c(C#N)c(NC(=O)C(C)C)n(Cc2ccccc2)c1C
cell number change: -24.2%
AC50 [2]: 1160 nM [rising, single point]

COc1cccc(NC(=O)CCC2CCN(C(=O)c3cccc(NC(C)=O)c3)CC2)c1
AC50 [2]: 6510 nM [rising, single point]

Cc1ccc(NS(=O)(=O)c2ccc(OCC(N)=O)cc2)cc1
cell number change: 2.03%
AC50 [2]: 35500 nM [rising, single point]

COc1cccc(CC(=O)Nc2cc(S(=O)(=O)N3CCCCC3)ccc2C)c1
cell number change: 3.79%

CCOC(=O)C(=O)Nc1nc(-c2ccccc2)c(CC)s1
cell number change: -8.25%
AC50 [2]: 41.1 nM [falling, full curve]

Cc1ccc(S(C)(=O)=O)cc1S(=O)(=O)Nc1ccccc1
cell number change: 2.58%
AC50 [2]: 731 nM [rising, full curve, poor fit]

O=C(CSc1ncn[nH]1)NCCC(c1ccccc1)c1ccccc1
cell number change: 53.2%
AC50 [1]: 25900 nM [rising, single point]
AC50 [2]: 29100 nM [rising, partial curve]

COc1ccc(-c2cc(C(F)(F)F)nc(SCCC(=O)N3CCCC3)n2)cc1
cell number change: 24.4%
AC50 [2]: 20600 nM [rising, partial curve, poor fit]
